Source: PubChem BioAssay AID1487 (National Center for Advancing Translational Sciences (NCATS), 2009)
The other results are listed elsewhere or left out. These are further read-outs of the screen, such as a control signal, another cell line or another target. No call is given for them. Most of these compounds were active or inconclusive in the main read-out, so they are no random draw. Words in brackets tell the shape of the fitted curve; partial curves, single points and poor fits give uncertain potencies.

Assay: qHTS Assay for Modulators of Lamin A Splicing
Settings: HeLa LMNA splicing GFP/RFP minigene ratio, 48 h
Outline: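 Read-out is the ratio of GFP to DsRed2 object intensity, acquired by 488 nm laser-scanning cytometry on HeLa lamin A-EGFP minigene reporter cells. Compound incubation 48 hrs at 37 °C in Opti-MEM with 2% FBS; DMSO 0.5% final.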

[1] = measured here: RFP viability control channel
[2] = measured here: GFP splicing reporter channel

SMILES	AC50 [1]	AC50 [2]
CC(C)c1ccc2c(c1)C1Cc3ccccc3C1N2 (centres undefined)	15.8 µM [rising, single point]	–
CCOC(=O)c1c(N)n(-c2ccc(C)c(C)c2)c2nc3ccccc3nc12	14.1 µM [falling, single point]	–
Cc1[nH][nH]c(=O)c1C(c1ccc(-c2ccc(F)cc2)o1)c1c(C)[nH][nH]c1=O	35.5 µM [falling, partial curve, poor fit]	35.5 µM [falling, partial curve, poor fit]
O=c1[nH][nH]c(-c2ccccc2O)c1C(C[N+](=O)[O-])c1cccc(Cl)c1 (centres undefined)	17.8 µM [rising, single point]	–
COc1ccccc1OCc1csc(NC(=O)c2ccco2)n1	15.8 µM [rising, partial curve]	11.2 µM [rising, partial curve]
CCN1c2ccccc2-c2nc3ccccc3n2C1c1cccnc1 (centres undefined)	35.5 µM [rising, single point]	35.5 µM [rising, single point]
CCN(CC)S(=O)(=O)c1ccc(NC(=O)c2ccc(CN3CCOCC3)cc2)cc1	1.58 µM [rising, full curve]	–
O=C(Cn1ncc2c1-c1ccccc1OC2)N1CCc2ccccc21	31.6 µM [rising, single point]	–
O=C(NCc1ccc2c(c1)CCN2C(=O)c1ccc(F)cc1)c1ccc(Br)o1	0.00355 µM [falling, full curve, poor fit]	–
NS(=O)(=O)c1ccc(NC(=O)CN2CCCC2)cc1	–	0.0158 µM [falling, full curve, poor fit]
CCCOc1cccc(OCCSc2nc(C)cc(=O)[nH]2)c1	35.5 µM [rising, partial curve]	22.4 µM [rising, partial curve, poor fit]
O=S(=O)(Nc1ccc(-c2csc(-c3ccccc3)n2)cc1)c1ccccc1	–	35.5 µM [falling, single point]
COc1ccccc1NC(=O)C1=C(C)Nc2c(C(=O)Nc3ccc(F)cc3)cnn2C1c1ccc(Cl)cc1 (centres undefined)	–	10 µM [falling, partial curve]
CN1c2ccccc2C(O)=C(C(=S)Nc2ccc(F)c(Cl)c2)S1(=O)=O	14.1 µM [rising, single point]	–
O=C(Nc1ccccc1)Nc1ncc([N+](=O)[O-])s1	5.62 µM [rising, partial curve]	–
c1ccc(-n2ncc3c(NCc4cccnc4)ncnc32)cc1	17.8 µM [rising, single point]	–
Fc1ccc(-c2cc(C(F)(F)F)nc(NCc3cccs3)n2)cc1	22.4 µM [rising, single point]	25.1 µM [rising, single point]
Cc1ccc(C(C)(C)C)cc1S(=O)(=O)NC(=O)c1ccccc1	0.447 µM [falling, full curve]	–
O=C(Nc1cc(F)ccc1F)C1CCN(c2nc3ccccc3n3cccc23)CC1	22.4 µM [falling, partial curve]	20 µM [falling, partial curve]

SMILES	AC50 [1]	AC50 [2]
COC(=O)c1ccc(OCC(=O)c2ccccc2OC)cc1	2.24 µM [falling, partial curve]	–
O=C(C1CCN(Cc2cn[nH]c2-c2ccc(F)cc2F)CC1)N1CCOCC1	–	0.562 µM [rising, full curve]
Cc1ccc(NC(=O)/C=C/c2ccc([N+](=O)[O-])s2)cc1	4.47 µM [falling, full curve, poor fit]	2.82 µM [falling, partial curve, poor fit]
CCn1c(=O)cc(SCC(=O)Nc2ccc3c(c2)OCCO3)c2ccccc21	20 µM [rising, single point]	–
COc1ccc(CCN=CC2=C(O)CC(C)(C)CC2=O)cc1	–	0.794 µM [rising, full curve, poor fit]
Cc1nc2c(C(=O)NCCc3ccc(Cl)cc3)cnn2c(C)c1Cc1c(F)cccc1Cl	2.82 µM [rising, partial curve, poor fit]	–
CC(C)CN1C(=O)C(=O)N(CC(=O)N2CCC(Cc3ccccc3)CC2)C1=O	–	1.78 µM [rising, full curve]
CC(=O)Nc1c(C)nn(-c2ccccc2)c1N1CCC(C(=O)NCc2ccc(Cl)cc2)CC1	–	6.31 µM [falling, single point]
O=C(NCCc1ccccc1)c1cc(=O)[nH]c2ccccc12	–	0.562 µM [falling, full curve, poor fit]
O=C(NCc1cccs1)c1ccc2c(c1)N(Cc1ccccc1Cl)C(=O)c1ccccc1S2	6.31 µM [rising, single point]	–
Cn1c(CSCc2ccccc2)nnc1SCC(=O)Nc1nccs1	35.5 µM [rising, single point]	–
O=C(Nc1cc(S(=O)(=O)N2CCCCC2)ccc1O)c1ccccc1NS(=O)(=O)c1ccc(F)cc1	35.5 µM [rising, single point]	–
Cc1ccccc1N1C(=O)CC1(C#N)c1ccc(OCc2ccccc2)cc1 (centres undefined)	35.5 µM [rising, single point]	15.8 µM [rising, partial curve, poor fit]
CC1(C)CSC(=NCc2ccccc2)N1C(=O)c1cccc([N+](=O)[O-])c1	17.8 µM [rising, single point]	–
CC(C)Oc1ccc(CC(=O)NNC(=S)Nc2ccc(Br)cc2)cc1	11.2 µM [rising, partial curve, poor fit]	12.6 µM [rising, partial curve]
Nc1nc(SCC(=O)N2CCOCC2)n[nH]1	5.01 µM [falling, full curve, poor fit]	3.16 µM [falling, full curve, poor fit]
C=C(C)CSc1nc(N)c2c(C)c(C)sc2n1	15.8 µM [rising, single point]	35.5 µM [rising, single point]
COc1ccc(CNC(=O)c2cc3cc(C)ccc3n2C)cc1	–	0.251 µM [falling, full curve, poor fit]
O=C(Nc1ccncc1)c1ccc2c(c1)C(=O)N(C1CCCCC1)C2=O	15.8 µM [rising, single point]	17.8 µM [rising, partial curve, poor fit]

An excerpt of these results, in CSV form.
SMILES,AC50 [1],AC50 [2]
CCOC(=O)c1c(N)n(-c2ccc(C)c(C)c2)c2nc3ccccc3nc12,"14.1 µM [falling, single point]",–
CCN1c2ccccc2-c2nc3ccccc3n2C1c1cccnc1 (centres undefined),"35.5 µM [rising, single point]","35.5 µM [rising, single point]"
O=C(Cn1ncc2c1-c1ccccc1OC2)N1CCc2ccccc21,"31.6 µM [rising, single point]",–
NS(=O)(=O)c1ccc(NC(=O)CN2CCCC2)cc1,–,"0.0158 µM [falling, full curve, poor fit]"
CN1c2ccccc2C(O)=C(C(=S)Nc2ccc(F)c(Cl)c2)S1(=O)=O,"14.1 µM [rising, single point]",–
c1ccc(-n2ncc3c(NCc4cccnc4)ncnc32)cc1,"17.8 µM [rising, single point]",–
O=C(C1CCN(Cc2cn[nH]c2-c2ccc(F)cc2F)CC1)N1CCOCC1,–,"0.562 µM [rising, full curve]"
CCn1c(=O)cc(SCC(=O)Nc2ccc3c(c2)OCCO3)c2ccccc21,"20 µM [rising, single point]",–
Cc1nc2c(C(=O)NCCc3ccc(Cl)cc3)cnn2c(C)c1Cc1c(F)cccc1Cl,"2.82 µM [rising, partial curve, poor fit]",–
CC(C)CN1C(=O)C(=O)N(CC(=O)N2CCC(Cc3ccccc3)CC2)C1=O,–,"1.78 µM [rising, full curve]"
O=C(NCCc1ccccc1)c1cc(=O)[nH]c2ccccc12,–,"0.562 µM [falling, full curve, poor fit]"
CC1(C)CSC(=NCc2ccccc2)N1C(=O)c1cccc([N+](=O)[O-])c1,"17.8 µM [rising, single point]",–
COc1ccc(CNC(=O)c2cc3cc(C)ccc3n2C)cc1,–,"0.251 µM [falling, full curve, poor fit]"

An excerpt of these results, as labelled records.
O=C(NCc1cccs1)c1ccc2c(c1)N(Cc1ccccc1Cl)C(=O)c1ccccc1S2
  AC50 [1]: 6.31 µM [rising, single point]
Cn1c(CSCc2ccccc2)nnc1SCC(=O)Nc1nccs1
  AC50 [1]: 35.5 µM [rising, single point]

The list continues.

SMILES	AC50 [1]	AC50 [2]
COc1cc(/C=N/NC(=O)c2cccnc2)ccc1OS(=O)(=O)c1ccc(F)cc1	35.5 µM [rising, single point]	–
COc1c(OC(C)=O)ccc(/C=C/c2ccc3ccccc3n2)c1[N+](=O)[O-]	25.1 µM [rising, single point]	17.8 µM [rising, single point]
Cc1cc(N2C(=O)C3C4C=CC(C4)C3C2=O)ccc1NC(=O)c1cccs1 (centres undefined)	0.794 µM [rising, full curve, poor fit]	15.8 µM [rising, partial curve, poor fit]
Cc1onc(-c2c(Cl)cccc2Cl)c1C(=O)N[C@H]1C(=O)N2[C@H]1SC(C)(C)[C@H]2C(=O)O	0.0794 µM [falling, full curve]	0.0562 µM [falling, full curve]
CC(=O)Nc1ccccc1OCC(=O)c1ccc2c(c1)OCO2	35.5 µM [rising, single point]	–
Cc1ccc(NC(=O)Cc2ccc(Cl)c(Cl)c2)cc1S(=O)(=O)N(C)C	25.1 µM [rising, single point]	–
Cc1cc(C)cc(Nc2cc(-c3ccccc3)nc(C)n2)c1	35.5 µM [falling, single point]	31.6 µM [falling, partial curve]
Cc1ccc(NC(=O)O/N=C/c2cccc([N+](=O)[O-])c2)cc1	–	4.47 µM [rising, single point]
COc1ccc(S(=O)(=O)N2CCCCCC2)cc1N(C)S(=O)(=O)c1ccc(C)cc1	31.6 µM [rising, single point]	–
CCC(CC)C(=O)NCc1ccc(Cl)cc1	–	0.891 µM [falling, full curve, poor fit]
COC(=O)c1cccc(NC(=O)Cn2nnc3ccccc32)c1	22.4 µM [rising, single point]	–
Cc1ccc(-c2cccc(C(=O)NCCc3ccccc3)n2)c2ccccc12	14.1 µM [rising, partial curve]	11.2 µM [rising, partial curve]
CCOC(=O)C1CCCN(C(=O)c2ccc3c(=O)n(CCOC)c(=S)[nH]c3c2)C1 (centres undefined)	14.1 µM [rising, partial curve]	–
CCOc1ccc(NC(=O)CN2CCN(CC(=O)Nc3ccc(Cl)c(C(F)(F)F)c3)CC2)cc1	35.5 µM [rising, single point]	–
S=C(Nc1ccc(Oc2ccccc2)cc1)N(CCCN1CCOCC1)Cc1ccccn1	–	12.6 µM [falling, partial curve, poor fit]
CCn1c(SCc2ccccc2)nnc1-c1cccnc1	2.51 µM [falling, full curve, poor fit]	–
Cc1c(Cl)c([N+](=O)[O-])nn1CCCC(=O)Nc1cc(Cl)ccc1Cl	12.6 µM [rising, partial curve]	–
COc1ccc(CNC(=O)Cn2nc(C)c3nn(-c4ccc(Cl)cc4)c(C)c3c2=O)cc1	1 µM [rising, partial curve]	0.316 µM [rising, full curve, poor fit]
